# According to PubChem BioAssay AID1487 (National Center for Advancing Translational Sciences (NCATS), 2009):
# The list shows a part of the results. These are further read-outs of the screen, such as a control signal, another cell line or another target. No call is given for them. Compounds called inactive in the main read-out are mostly missing here. Potencies come from curve fits of mixed quality, noted in brackets.
# Experiment: qHTS Assay for Modulators of Lamin A Splicing
# Details: HeLa LMNA splicing GFP/RFP minigene ratio, 48 h
# In short: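 Read-out is the ratio of GFP to DsRed2 object intensity, acquired by 488 nm laser-scanning cytometry on HeLa lamin A-EGFP minigene reporter cells. Compound incubation 48 hrs at 37 °C in Opti-MEM with 2% FBS; DMSO 0.5% final.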
# [1] = measured here: RFP viability control channel
# [2] = measured here: GFP splicing reporter channel
SMILES,AC50 [1],AC50 [2]
CCC1=[N+](CC(=O)c2ccc(C)cc2)CCn2c(C)ccc21,"35.5 µM [rising, single point]",
O=c1c(Cl)cc(Cl)nn1-c1ccccc1,"3.98 µM [falling, partial curve, poor fit]",
COc1ccc(/C=C/C(=O)OCC(=O)Nc2cccc(Oc3ccccc3)c2)c(OC)c1,"25.1 µM [rising, single point]","14.1 µM [rising, single point]"
CCSC(C)CC1C/C(=N/O)c2c(C)noc2C1 (stereo not drawn),"14.1 µM [rising, single point]",
COc1ccc(-c2c(C)[nH]n3c(=O)c(Cc4ccccc4)c(C)nc23)cc1,"22.4 µM [rising, single point]",
O=C(Cn1nnc(-c2ccc(CN3CCOCC3)cc2)n1)N(c1ccccc1)c1ccccc1,"35.5 µM [falling, single point]","5.62 µM [falling, partial curve, poor fit]"
CCCCN(Cc1ccccc1)C(=O)C1CCN(Cc2sccc2C)CC1,"35.5 µM [rising, single point]",
Cc1ccnc(NC(=O)COc2ccc3oc4c(c3c2)CCCC4)c1,"35.5 µM [rising, single point]",
CCOc1ccc(N2CC(c3nc(-c4cc(OC)c(OC)c(OC)c4)no3)CC2=O)cc1 (stereo not drawn),,"35.5 µM [falling, partial curve, poor fit]"
COc1cccc(N2CC(NC(=O)c3ccc(S(=O)(=O)N4CCCC4)cc3)CC2=O)c1 (stereo not drawn),"0.0631 µM [rising, full curve, poor fit]",
Cc1ccc(N2CCN(C3=NC(=O)C(Cc4ccccc4)S3)CC2)cc1 (stereo not drawn),"11.2 µM [rising, partial curve, poor fit]",
CC(C)c1ccc(C(=O)CSc2n[nH]c(-c3ccncc3)n2)cc1,"15.8 µM [rising, single point]","14.1 µM [rising, partial curve, poor fit]"
O=C(COC(=O)C1CCCCC1)Nc1ccc(S(=O)(=O)N2CCOCC2)cc1,"0.0112 µM [rising, partial curve, poor fit]",
Cc1cc(-c2csc(NC(=O)c3ccc(S(=O)(=O)N(C)C)cc3)n2)c(C)n1-c1ccccc1,"3.16 µM [rising, full curve]","3.16 µM [rising, full curve]"
O=C1C(CCC(O)c2ccc(F)cc2)C(c2ccc(O)cc2)N1c1ccc(F)cc1 (stereo not drawn),"0.00562 µM [falling, full curve, poor fit]",
CCOC(=O)c1cnc2c(c(C)nn2C)c1Oc1ccc(Cl)cc1,"35.5 µM [rising, single point]",
CC(O)CNCCOc1cccc(Oc2ccccc2)c1 (stereo not drawn),,"4.47 µM [rising, full curve, poor fit]"
Cc1cccc2c(=O)c(Br)c(C)n(Cc3ccccc3)c12,,"0.316 µM [falling, partial curve]"
COc1ccc(-n2ncc3c(N4CCN(c5cccc(C)c5)C(C)C4)ncnc32)cc1 (stereo not drawn),"35.5 µM [falling, single point]","12.6 µM [falling, partial curve]"

# Single records, from the list above.
# Cc1cccc2c(=O)c(Br)c(C)n(Cc3ccccc3)c12 is listed with AC50 [2]: 0.316 µM [falling, partial curve]
# O=C(COC(=O)C1CCCCC1)Nc1ccc(S(=O)(=O)N2CCOCC2)cc1 is listed with AC50 [1]: 0.0112 µM [rising, partial curve, poor fit]

# Next records:

SMILES,AC50 [1],AC50 [2]
CCOC(=O)CNc1c(-c2ccc(O)cc2)nc2ccc(Cl)cn12,"0.355 µM [rising, partial curve, poor fit]",
CCn1c2ccccc2c2cc(NC(=O)c3cc(OC)c(OC)c(OC)c3)ccc21,"1.26 µM [falling, full curve]","1.26 µM [falling, full curve]"
Cc1ccc(CN=C(N)Nc2nc(C)cc(C)n2)cc1,,"0.794 µM [falling, full curve]"
O=C1C(=O)c2ccccc2C(O)=C1C1CCC(c2ccc(Cl)cc2)CC1 (stereo not drawn),"6.31 µM [rising, partial curve, poor fit]","4.47 µM [falling, partial curve]"
Cc1c(C(=O)N2CCN(c3ccccc3)CC2)sc2ncnc(N3CCC(C)CC3)c12,"35.5 µM [rising, single point]","35.5 µM [rising, single point]"
Cc1ccc(SCc2cn3c(C)csc3n2)cc1,"35.5 µM [rising, single point]","31.6 µM [rising, single point]"
O=C(NCc1ccc2c(c1)OCO2)c1ccc(COc2cccc(Cl)c2)o1,"35.5 µM [rising, single point]","20 µM [rising, single point]"
Clc1ccc2nc(-c3ccc(Br)s3)cn2c1,"6.31 µM [rising, partial curve, poor fit]",
COc1ccc(CN(C(=O)c2ccco2)c2ccc(C)cc2)cc1OC,"20 µM [rising, single point]",
COc1ccccc1-n1c(=O)c(C#N)c(-c2ccc([N+](=O)[O-])cc2)c2cc(C(=O)c3cc(F)ccc3O)cnc21,"35.5 µM [falling, single point]","31.6 µM [falling, single point]"
Cc1ccccc1Cn1c(O)c(N=NC(=S)Nc2ccccc2F)c2ccccc21,"0.316 µM [rising, full curve, poor fit]",
Cc1ccc(C2/C(=C(\O)c3cnn(-c4ccccc4)c3C)C(=O)C(=O)N2CCN(C)C)o1 (stereo not drawn),"0.1 µM [falling, full curve]",
COc1ccc(OC)c(S(=O)(=O)N2CCC(C(=O)Nc3cccc(C(F)(F)F)c3)CC2)c1,"31.6 µM [rising, single point]",
CCOc1ccc(CC(=O)Nc2ccc3nc(N4CCCCC4)cc(C)c3c2)cc1OCC,"31.6 µM [rising, single point]",
Cc1ccc(N/N=C/c2c(O)cc(C)oc2=O)cc1,"5.01 µM [falling, partial curve]",
O=C(Cc1c[nH]c2ccccc12)NCc1ccc(Cl)cc1Cl,"7.94 µM [rising, partial curve]","10 µM [rising, single point]"
c1ccc(-c2nc(N3CCCCCC3)c3ccccc3n2)nc1,"10 µM [rising, partial curve]","11.2 µM [rising, partial curve, poor fit]"
O=c1oc2ccc(Br)cc2cc1S(=O)(=O)c1ccc(F)cc1,,"35.5 µM [falling, single point]"
O=[N+]([O-])c1ccc2nc(-c3ccc(Cl)cc3)[nH]c2c1,"22.4 µM [rising, single point]","10 µM [rising, partial curve, poor fit]"

SMILES,AC50 [1],AC50 [2]
O=C(/C=C/c1ccc(Br)cc1)N1CCN(c2cccc(C(F)(F)F)c2)CC1,"6.31 µM [rising, partial curve]",
CN1C(=O)/C(=N\OC(=O)c2ccccc2Cl)c2ccccc21,,"0.562 µM [rising, partial curve, poor fit]"
CCOC(=O)c1c(NC(=O)CS(=O)(=O)c2cn(CC)c3ccccc23)sc2c1CCCC2,"11.2 µM [rising, partial curve]","3.55 µM [rising, full curve, poor fit]"
Cn1ccnc1Sc1nc(Nc2cccc(Cl)c2)nc(N2CCOCC2)n1,"31.6 µM [rising, single point]",
O=C(CC1Sc2ncnn2C1=O)Nc1ccc(Br)cc1 (stereo not drawn),"35.5 µM [rising, single point]",
Cc1ccc(-c2nnn(CCC(=O)NC3CCCC3)n2)cc1,"11.2 µM [rising, partial curve]","11.2 µM [rising, partial curve]"
O=C(CNS(=O)(=O)c1ccc(C(=O)N2CCCCC2)cc1)N1CCCCC1,"0.708 µM [rising, full curve]",
CCCS(=O)(=O)N1CCN=C1SCc1cccc(C)c1,"7.08 µM [falling, partial curve, poor fit]",
COc1ccc(Cn2cccc(NC(=O)Nc3ccc(F)cc3)c2=O)cc1,"3.98 µM [falling, partial curve]",
OC1CCN(C(=S)Nc2ccc(Nc3ccccc3)cc2)CC1,"0.282 µM [rising, full curve, poor fit]",
CCN1/C(=C/C=C/C=C/c2sc3ccccc3[n+]2CC)Sc2ccccc21,"4.47 µM [rising, full curve]","3.98 µM [rising, single point]"
CC(/C=C/c1ccc(O)cc1)=N/O,"10 µM [rising, partial curve]",
COc1ccc(Oc2ccccc2C=O)cc1,"35.5 µM [falling, single point]","35.5 µM [falling, single point]"
C/C(=C\C=C(C#N)C#N)c1cc(C#N)c(N)o1,"14.1 µM [rising, partial curve, poor fit]",
O=C(Oc1cc2oc(=O)cc(-c3ccccc3)c2cc1Cl)C1CCCCC1,"7.94 µM [falling, partial curve, poor fit]","10 µM [falling, partial curve, poor fit]"
CCCCOc1cc(CC2CNC(=O)N2)ccc1OC (stereo not drawn),"22.4 µM [rising, single point]","25.1 µM [rising, single point]"
O=C(CSc1nccc(=O)[nH]1)N1CCN(c2ccccc2)CC1,"3.98 µM [falling, full curve, poor fit]","7.08 µM [falling, full curve, poor fit]"
O=S(=O)(Nc1ccc2nc(C(F)(F)F)[nH]c2c1)c1ccccc1,"15.8 µM [rising, partial curve]","17.8 µM [rising, partial curve]"
